# Values of other authors as cited in patent publication US10499676B2, “Intestinal barrier integrity” (N.V. Nutricia, priority 2004, dated 2019).
# At least one structure is not confirmed: it was looked up by name or label, or the drawing left a doubt.
# Test system: intestinal monolayer cells
# Conditions: Usami et al, Clinical Nutrition 2001; cited from earlier work
smiles,measurement,value
"CC/C=C\C/C=C\C/C=C\C/C=C\C/C=C\CCCC(=O)O [EPA, eicosapentaenoic acid]",tight junction permeability,increase permeability
